The other results are listed elsewhere or left out.
Each target was assayed with Cc1sc2c(c1C)C(c1ccc(Cl)cc1)=N[C@@H](CC(=O)OC(C)(C)C)c1nnc(C)n1-2 (assay: log2 fold change, soluble protein after heating vs DMSO (PISA); higher = thermal stabilisation; K562 lysate, 10 uM; active = over 0.2 and 3.5 SD of the protein, either way, in both replicates (recomputed)).
In short: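 Dounce homogenisation of K562 pellets in PBS pH 7.4 with 1 mM MgCl2 produced a crude extract, used at 1 mg/mL protein. Exposure to 10 μM compound lasted 30 min, and aliquots were then heated for 3 min across 48°C-58°C, pooled and brought to 0.5% NP-40 at 4°C. The supernatant after 21,000xg for 90 min was quantified by TMTpro 16plex LC-MS/MS with channel sums equalised. Duplicate values are given as log-two fold change in thermal stability relative to solvent controls.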

Protein sequences, listed by entry. Tags and fused reporters are not part of them. Lines headed by an entry give the natural chain unless they say otherwise; changes in a name come on top.
UniProt Q8N196: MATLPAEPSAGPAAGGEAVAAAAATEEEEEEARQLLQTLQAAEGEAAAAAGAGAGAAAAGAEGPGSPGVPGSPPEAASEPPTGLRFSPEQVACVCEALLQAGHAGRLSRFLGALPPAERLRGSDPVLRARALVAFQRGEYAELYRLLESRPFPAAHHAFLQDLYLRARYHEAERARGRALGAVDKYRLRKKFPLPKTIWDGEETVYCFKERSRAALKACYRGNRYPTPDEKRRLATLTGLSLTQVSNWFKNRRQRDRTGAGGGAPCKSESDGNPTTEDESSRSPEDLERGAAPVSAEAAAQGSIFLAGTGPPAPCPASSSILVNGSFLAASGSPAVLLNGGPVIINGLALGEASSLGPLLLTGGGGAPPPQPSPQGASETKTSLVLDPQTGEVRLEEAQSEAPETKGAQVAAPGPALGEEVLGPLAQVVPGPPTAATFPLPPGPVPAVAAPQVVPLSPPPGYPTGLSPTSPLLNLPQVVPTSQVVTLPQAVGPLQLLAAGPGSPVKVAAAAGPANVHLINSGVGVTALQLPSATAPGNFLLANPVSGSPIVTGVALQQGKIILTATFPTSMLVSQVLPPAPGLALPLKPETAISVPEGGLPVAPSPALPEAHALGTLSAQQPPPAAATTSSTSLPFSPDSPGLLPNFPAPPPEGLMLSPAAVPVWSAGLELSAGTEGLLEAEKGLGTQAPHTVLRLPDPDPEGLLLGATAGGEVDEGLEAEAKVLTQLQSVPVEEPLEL
UniProt Q9BYW2: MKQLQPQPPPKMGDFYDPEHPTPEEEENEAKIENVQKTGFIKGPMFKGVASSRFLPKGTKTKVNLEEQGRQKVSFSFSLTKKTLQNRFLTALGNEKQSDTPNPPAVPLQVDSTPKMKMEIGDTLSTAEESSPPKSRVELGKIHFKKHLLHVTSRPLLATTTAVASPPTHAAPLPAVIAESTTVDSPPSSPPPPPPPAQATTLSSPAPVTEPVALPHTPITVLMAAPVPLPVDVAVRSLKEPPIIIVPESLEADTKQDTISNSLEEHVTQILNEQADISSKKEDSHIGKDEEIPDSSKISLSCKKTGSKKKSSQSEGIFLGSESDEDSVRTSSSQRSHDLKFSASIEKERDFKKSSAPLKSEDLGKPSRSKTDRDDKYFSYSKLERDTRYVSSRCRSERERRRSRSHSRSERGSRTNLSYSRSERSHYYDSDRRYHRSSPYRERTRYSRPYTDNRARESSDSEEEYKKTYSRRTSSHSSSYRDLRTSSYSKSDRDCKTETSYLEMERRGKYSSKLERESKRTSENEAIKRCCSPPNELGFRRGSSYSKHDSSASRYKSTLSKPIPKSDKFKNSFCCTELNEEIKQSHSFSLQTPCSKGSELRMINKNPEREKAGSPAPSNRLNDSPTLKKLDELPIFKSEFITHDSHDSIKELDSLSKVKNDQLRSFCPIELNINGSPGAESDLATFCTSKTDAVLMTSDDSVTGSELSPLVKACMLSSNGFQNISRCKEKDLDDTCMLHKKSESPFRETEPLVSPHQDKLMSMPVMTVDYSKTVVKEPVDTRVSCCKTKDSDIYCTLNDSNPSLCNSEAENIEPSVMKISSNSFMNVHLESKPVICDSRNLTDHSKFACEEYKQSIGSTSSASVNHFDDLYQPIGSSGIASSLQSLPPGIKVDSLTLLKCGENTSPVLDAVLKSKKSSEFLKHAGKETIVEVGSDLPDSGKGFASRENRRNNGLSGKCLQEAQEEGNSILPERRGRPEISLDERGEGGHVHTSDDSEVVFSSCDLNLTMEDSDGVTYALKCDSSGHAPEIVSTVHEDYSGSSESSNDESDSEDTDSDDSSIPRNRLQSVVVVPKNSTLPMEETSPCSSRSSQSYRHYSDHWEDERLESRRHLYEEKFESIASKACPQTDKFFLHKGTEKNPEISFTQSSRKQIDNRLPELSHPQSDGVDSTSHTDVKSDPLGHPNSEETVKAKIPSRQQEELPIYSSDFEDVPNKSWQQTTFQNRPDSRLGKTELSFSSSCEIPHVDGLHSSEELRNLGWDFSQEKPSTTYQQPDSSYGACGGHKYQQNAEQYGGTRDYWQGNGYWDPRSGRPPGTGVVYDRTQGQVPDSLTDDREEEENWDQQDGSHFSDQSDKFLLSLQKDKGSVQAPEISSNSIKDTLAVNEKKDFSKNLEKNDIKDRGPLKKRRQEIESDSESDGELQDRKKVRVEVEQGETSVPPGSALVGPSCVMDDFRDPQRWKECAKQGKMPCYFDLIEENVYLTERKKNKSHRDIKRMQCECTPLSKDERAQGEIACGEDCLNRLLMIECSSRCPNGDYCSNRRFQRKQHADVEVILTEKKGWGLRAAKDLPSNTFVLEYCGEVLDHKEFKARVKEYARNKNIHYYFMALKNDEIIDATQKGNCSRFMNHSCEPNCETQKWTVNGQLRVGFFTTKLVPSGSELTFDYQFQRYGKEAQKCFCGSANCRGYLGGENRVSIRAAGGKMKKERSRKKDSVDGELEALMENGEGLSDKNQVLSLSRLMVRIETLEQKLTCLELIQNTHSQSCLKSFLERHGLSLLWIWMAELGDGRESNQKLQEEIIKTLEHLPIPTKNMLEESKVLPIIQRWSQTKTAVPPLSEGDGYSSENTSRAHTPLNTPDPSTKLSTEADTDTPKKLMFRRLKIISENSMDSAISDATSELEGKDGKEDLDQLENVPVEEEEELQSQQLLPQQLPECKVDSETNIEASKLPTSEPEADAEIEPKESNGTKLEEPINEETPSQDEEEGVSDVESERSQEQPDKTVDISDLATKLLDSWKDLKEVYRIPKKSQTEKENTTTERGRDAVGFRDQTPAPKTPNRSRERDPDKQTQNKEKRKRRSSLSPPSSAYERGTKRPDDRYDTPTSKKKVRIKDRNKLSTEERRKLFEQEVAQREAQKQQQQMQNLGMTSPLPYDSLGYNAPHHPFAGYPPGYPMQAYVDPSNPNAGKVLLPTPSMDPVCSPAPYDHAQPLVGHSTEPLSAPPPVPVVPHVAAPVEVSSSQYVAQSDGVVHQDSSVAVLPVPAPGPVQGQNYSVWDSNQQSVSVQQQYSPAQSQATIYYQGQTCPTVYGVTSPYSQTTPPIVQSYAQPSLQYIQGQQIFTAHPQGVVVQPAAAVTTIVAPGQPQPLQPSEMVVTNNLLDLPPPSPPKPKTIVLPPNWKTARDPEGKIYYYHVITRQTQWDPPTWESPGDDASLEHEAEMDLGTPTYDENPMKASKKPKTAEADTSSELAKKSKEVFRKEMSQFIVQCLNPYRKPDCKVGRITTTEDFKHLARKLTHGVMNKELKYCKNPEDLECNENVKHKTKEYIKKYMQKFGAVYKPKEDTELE
UniProt P01008, whole entry, looked up: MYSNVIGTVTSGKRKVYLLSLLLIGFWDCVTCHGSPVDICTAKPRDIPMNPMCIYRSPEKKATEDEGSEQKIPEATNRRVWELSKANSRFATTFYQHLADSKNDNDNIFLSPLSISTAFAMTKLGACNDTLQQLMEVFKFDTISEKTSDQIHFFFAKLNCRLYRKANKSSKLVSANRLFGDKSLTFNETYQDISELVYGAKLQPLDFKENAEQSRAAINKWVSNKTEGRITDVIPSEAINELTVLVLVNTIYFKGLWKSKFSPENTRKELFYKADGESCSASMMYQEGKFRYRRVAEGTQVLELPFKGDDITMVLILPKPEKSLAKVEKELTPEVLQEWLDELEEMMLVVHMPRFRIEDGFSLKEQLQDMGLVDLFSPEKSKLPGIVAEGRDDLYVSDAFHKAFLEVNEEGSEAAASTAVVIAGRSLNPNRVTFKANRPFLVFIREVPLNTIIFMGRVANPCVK
UniProt Q8N6T7, whole entry, looked up: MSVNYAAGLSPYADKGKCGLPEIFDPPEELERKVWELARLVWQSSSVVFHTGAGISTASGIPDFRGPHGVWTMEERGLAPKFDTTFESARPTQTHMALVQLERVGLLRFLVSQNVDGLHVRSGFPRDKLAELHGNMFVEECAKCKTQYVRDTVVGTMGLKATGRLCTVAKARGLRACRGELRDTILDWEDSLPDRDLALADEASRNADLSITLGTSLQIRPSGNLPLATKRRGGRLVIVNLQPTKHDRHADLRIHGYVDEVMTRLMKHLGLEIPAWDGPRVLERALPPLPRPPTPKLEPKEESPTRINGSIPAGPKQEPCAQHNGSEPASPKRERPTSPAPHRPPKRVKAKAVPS
UniProt Q96EB6: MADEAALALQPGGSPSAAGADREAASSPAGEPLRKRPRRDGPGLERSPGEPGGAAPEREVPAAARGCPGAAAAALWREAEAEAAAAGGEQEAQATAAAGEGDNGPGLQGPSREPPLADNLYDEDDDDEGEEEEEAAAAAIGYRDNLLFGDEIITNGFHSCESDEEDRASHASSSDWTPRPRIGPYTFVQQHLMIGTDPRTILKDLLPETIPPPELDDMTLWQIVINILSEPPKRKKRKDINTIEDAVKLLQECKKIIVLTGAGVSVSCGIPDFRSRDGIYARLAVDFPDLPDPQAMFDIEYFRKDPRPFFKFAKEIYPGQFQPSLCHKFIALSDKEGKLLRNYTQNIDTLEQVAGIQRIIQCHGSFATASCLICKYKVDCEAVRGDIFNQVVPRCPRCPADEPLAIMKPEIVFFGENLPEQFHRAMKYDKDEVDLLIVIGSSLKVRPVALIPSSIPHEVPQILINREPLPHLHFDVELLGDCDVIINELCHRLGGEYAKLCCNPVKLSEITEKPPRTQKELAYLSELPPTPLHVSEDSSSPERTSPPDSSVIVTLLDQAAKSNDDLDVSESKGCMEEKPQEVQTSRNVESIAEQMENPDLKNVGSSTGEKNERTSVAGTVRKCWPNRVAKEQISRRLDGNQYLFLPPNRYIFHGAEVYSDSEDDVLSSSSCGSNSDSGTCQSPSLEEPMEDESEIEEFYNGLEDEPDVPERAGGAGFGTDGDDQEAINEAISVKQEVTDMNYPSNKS
UniProt P23246: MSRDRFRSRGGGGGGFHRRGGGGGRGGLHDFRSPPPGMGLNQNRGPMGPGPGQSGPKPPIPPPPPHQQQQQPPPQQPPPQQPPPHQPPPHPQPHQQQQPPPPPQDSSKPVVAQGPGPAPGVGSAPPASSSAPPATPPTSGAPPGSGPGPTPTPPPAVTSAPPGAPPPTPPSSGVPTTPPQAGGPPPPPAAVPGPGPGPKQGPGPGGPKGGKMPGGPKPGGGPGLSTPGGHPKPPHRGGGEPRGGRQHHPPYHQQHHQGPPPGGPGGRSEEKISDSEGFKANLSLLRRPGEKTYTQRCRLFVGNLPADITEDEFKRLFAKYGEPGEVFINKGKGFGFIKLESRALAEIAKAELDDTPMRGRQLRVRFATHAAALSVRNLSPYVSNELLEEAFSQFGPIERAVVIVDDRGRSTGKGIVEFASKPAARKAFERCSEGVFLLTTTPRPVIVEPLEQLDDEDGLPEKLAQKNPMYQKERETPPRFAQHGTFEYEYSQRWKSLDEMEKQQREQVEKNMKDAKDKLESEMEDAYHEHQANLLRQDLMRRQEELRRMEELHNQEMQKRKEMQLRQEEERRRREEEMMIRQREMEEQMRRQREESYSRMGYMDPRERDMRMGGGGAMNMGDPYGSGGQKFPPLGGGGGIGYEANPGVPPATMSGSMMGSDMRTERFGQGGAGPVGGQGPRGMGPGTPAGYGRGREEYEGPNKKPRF
UniProt Q9BRV8: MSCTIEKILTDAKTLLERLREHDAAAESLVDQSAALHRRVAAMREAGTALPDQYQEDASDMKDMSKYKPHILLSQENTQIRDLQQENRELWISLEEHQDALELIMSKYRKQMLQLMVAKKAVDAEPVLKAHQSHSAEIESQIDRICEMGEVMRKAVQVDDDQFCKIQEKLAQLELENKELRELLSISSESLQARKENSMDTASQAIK

Target | log2 fold change
SH3BP1 (UniProt Q9Y3L3) | inactive: 0.011
SIX5 (UniProt Q8N196) | inactive: -0.037
SH2B1 (UniProt Q9NRF2) | inactive: -0.007
SH3BGR (UniProt P55822) | inactive: 0.075
SLAIN2 (UniProt Q9P270) | inactive: -0.011
SFR1 isoform 2 (UniProt Q86XK3) | inactive: 0
SGPL1 (UniProt O95470) | inactive: -0.107
SETD2 (UniProt Q9BYW2) | inactive: -0.018
SHQ1 (UniProt Q6PI26) | inactive: -0.42
SERPINC1 (UniProt P01008) | inactive: -0.071
SFXN4 (UniProt Q6P4A7) | inactive: 0.002
SIRT6 (UniProt Q8N6T7) | inactive: 0.102
SIRT2 (UniProt Q8IXJ6) | inactive: -0.008
SH3GLB2 (UniProt Q9NR46) | inactive: 0.044
SH2D2A isoform 2 (UniProt Q9NP31) | inactive: 0
SIRT1 (UniProt Q96EB6) | inactive: -0.006
SETD3 (UniProt Q86TU7) | inactive: -0.008
SFPQ (UniProt P23246) | inactive: -0.002
SERPINA12 (UniProt Q8IW75) | inactive: -0.083
SLC12A6 (UniProt Q9UHW9) | inactive: 0.036
SGO1 (UniProt Q5FBB7) | inactive: 0.015
SF3A2 (UniProt Q15428) | inactive: 0.037
SIKE1 (UniProt Q9BRV8) | inactive: 0.004

2 records drawn at random from the list so far, as already listed:
Target | log2 fold change
SH2D2A isoform 2 (UniProt Q9NP31) | inactive: 0
SFPQ (UniProt P23246) | inactive: -0.002

— the supplement of paper PMC10849652
